Drawing on PubChem BioAssay AID256 (DTP/NCI, 2004), this text covers survivor count and T/C for 21 compounds.

The test system of this assay is CD2F1 mice, L1210 leukemia ip, survival T/C. Put plainly: NCI In Vivo Anticancer Drug Screen. Data for tumor model L1210 Leukemia (intraperitoneal) in CD2F1 (CDF1) mice. The conditions noted are these: higher T/C = longer survival. Put shortly:
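Ratio T/C, where T is the treated-group value and C the vehicle-dosed control value, from mice implanted with a transplantable tumor.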

The mark [1] stands for this setting: T/C endpoint: mean survival time, dose: 400.0 mg/kg/injection, schedule: Q04DX003 (ip), vehicle: saline.
The mark [2] stands for this setting: T/C endpoint: mean survival time, dose: 400.0 mg/kg/injection, schedule: Q04DX003 (ip), vehicle: saline with Tween-80.
[3] abbreviates: T/C endpoint: mean survival time, dose: 25.0 mg/kg/injection, schedule: Q04DX002 (ip), vehicle: saline with Tween-80.
Setting [4] is: T/C endpoint: mean survival time, dose: 400.0 mg/kg/injection, schedule: Q04DX002 (ip), vehicle: saline with Tween-80.
[5] abbreviates: T/C endpoint: mean survival time, dose: 37.5 mg/kg/injection, schedule: Q01DX009 (ip), vehicle: Klucel (hydroxypropylcellulose) (HPC).
Setting [6] is: T/C endpoint: mean survival time, dose: 150.0 mg/kg/injection, schedule: Q01DX009 (ip), vehicle: Klucel (hydroxypropylcellulose) (HPC).
Setting [7] is: T/C endpoint: mean survival time, dose: 300.0 mg/kg/injection, schedule: Q01DX009 (ip), vehicle: Klucel (hydroxypropylcellulose) (HPC).
Where [8] appears, read: T/C endpoint: mean survival time, dose: 100.0 mg/kg/injection, schedule: Q04DX002 (ip), vehicle: saline with Tween-80.
[9] abbreviates: T/C endpoint: mean survival time, dose: 100.0 mg/kg/injection, schedule: Q01DX005 (ip), vehicle: other.
[10] abbreviates: T/C endpoint: mean survival time, dose: 25.0 mg/kg/injection, schedule: Q01DX009 (ip), vehicle: saline with Tween-80.

Structures are written as SMILES. The list is a part of this screen's results and no random one: it is rich in T/C values a quarter to a half above the control, in often repeated tests (any T/C) and in doses without a T/C. Further doses and runs are listed elsewhere. T/C gives the treated animals as a percentage of the vehicle group. Some doses have a count of surviving animals in place of a T/C: the source files T/C as zero there, which appears to mark a toxic dose or a test without result, not a measured value. Some doses without a T/C left all or most animals alive at the check, yet need not have been tolerated: the source hardly ever lists a survival T/C far under the control, and the zero likely stands for such cases as well. Survivors were counted at the toxicity check, usually on the fifth day, unless a day is given; later deaths do not show. Schedule codes are those of the source, taken here to give the interval after Q, in days (D) or hours (H), and the number of doses after X. Some molecules as drawn cover several salts, stereoisomers or complexes of the source; a dose is that of the sample tested. Some entries were tested several times; the values are given in rising order. Where survival is the endpoint, the PubChem record calls one and a half times the control and up active, and a quarter to a half above the control has no call in these data; cut-offs in other NCI protocols can differ. Some schedule codes hold Z or #, which are not explained here.

Turning to `CCCCN=C(N)CCl`, the survivor count is on record as 0 of 3 (T/C endpoint: mean survival time, dose: 200.0 mg/kg/injection, schedule: Q04DX002 (ip), vehicle: saline) and 0 of 3 (T/C endpoint: mean survival time, dose: 400.0 mg/kg/injection, schedule: Q04DX002 (ip), vehicle: saline).
Turning to `CN=C(NC)c1ccc(NC(=O)/C=C\c2ccc(/C=C/C(=O)Nc3ccc(C(=NC)NC)cc3)cc2)cc1`, the T/C (T/C endpoint: median survival time, dose: 1.56 mg/kg/injection, schedule: Q01DX009 (ip), vehicle: Klucel (hydroxypropylcellulose) (HPC)) was 127 % of control. In addition, the survivor count (T/C endpoint: median survival time, dose: 24.0 mg/kg/injection, schedule: Q01DX009 (ip), vehicle: Klucel (hydroxypropylcellulose) (HPC)) is on record as 0 of 6 and the survivor count (T/C endpoint: median survival time, dose: 25.0 mg/kg/injection, schedule: Q01DX009 (ip), vehicle: Klucel (hydroxypropylcellulose) (HPC)) is reported as 0 of 6.
For `Nc1ccnnc1`, the survivor count under setting [1] is 0 of 6.
In the case of `CN(N)c1cccc2c1CCCC2`, the survivor count is 0 of 6 (T/C endpoint: mean survival time, dose: 200.0 mg/kg/injection, schedule: Q04DX003 (ip), vehicle: saline with Tween-80) and 0 of 6 under setting [2].
`COc1c(NC(=O)Nc2ccccc2C)cccc1[N+](=O)[O-]`: the survivor count runs as follows: under setting [3], 3 of 3; (T/C endpoint: mean survival time, dose: 200.0 mg/kg/injection, schedule: Q04DX002 (ip), vehicle: saline with Tween-80) 3 of 3; under setting [4], 3 of 3.
As to `CC(C)n1cnc2c(=S)nc[nH]c21`, the T/C (T/C endpoint: mean survival time, dose: 50.0 mg/kg/injection, schedule: Q01DX Z (ip), vehicle: saline) is 127 % of control and the T/C (T/C endpoint: mean survival time, dose: 140.0 mg/kg/injection, schedule: Q01DX Z (ip), vehicle: saline) was 141 % of control.
As for `NC(N)=NCc1ccccc1`, the survivor count runs as follows: (T/C endpoint: mean survival time, dose: 100.0 mg/kg/injection, schedule: Q04DX003 (ip), vehicle: saline) 2 of 6 and 3 of 6; (T/C endpoint: mean survival time, dose: 200.0 mg/kg/injection, schedule: Q04DX003 (ip), vehicle: saline) 0 of 6 and 1 of 6; under setting [1], 0 of 6.
In the case of `O=c1[nH]cc(N(CCCl)CCCl)c(=O)[nH]1`, the T/C by setting is: (T/C endpoint: mean survival time, dose: 0.39 mg/kg/injection, schedule: Q01DX009 (ip), vehicle: saline) 128 % of control; (T/C endpoint: mean survival time, dose: 0.65 mg/kg/injection, schedule: Q01DX009 (ip), vehicle: saline) 139 % of control; (T/C endpoint: mean survival time, dose: 1.1 mg/kg/injection, schedule: Q01DX001 (ip), vehicle: saline) 130 % of control; (T/C endpoint: mean survival time, dose: 1.8 mg/kg/injection, schedule: Q01DX001 (ip), vehicle: saline) 147 % of control; (T/C endpoint: mean survival time, dose: 3.0 mg/kg/injection, schedule: Q04DX003 (ip), vehicle: saline) 140 % of control. Moreover, the survivor count (T/C endpoint: mean survival time, dose: 3.0 mg/kg/injection, schedule: Q01DX009 (ip), vehicle: saline) is recorded as 10 of 10 and the survivor count (T/C endpoint: mean survival time, dose: 14.0 mg/kg/injection, schedule: Q01DX001 (ip), vehicle: saline) is listed as 9 of 10.
Take `CN(C)N=Nc1ccc(NC=O)cc1`: the T/C (T/C endpoint: mean survival time, dose: 18.75 mg/kg/injection, schedule: Q01DX009 (ip), vehicle: Klucel (hydroxypropylcellulose) (HPC)) is 125, 127, 131 % of control. Moreover, the survivor count is, setting by setting: under setting [5], 1 of 6; (T/C endpoint: mean survival time, dose: 75.0 mg/kg/injection, schedule: Q01DX009 (ip), vehicle: Klucel (hydroxypropylcellulose) (HPC)) 0 of 6; under setting [6], 0 of 6; under setting [7], 0 of 6.
As for `COc1ccc(NC(=O)Nc2ccc([N+](=O)[O-])cc2OC)c(Cl)c1`, where the note is “T/C endpoint: mean survival time, dose: 200.0 mg/kg/injection, schedule: Q01DX001 (ip), vehicle: saline with Tween-80”, the survivor count is reported as 3 of 3.
For `CCC(CN(C)C)C(=O)c1ccccc1` (configuration not stated), the survivor count by setting is: under setting [8], 3 of 3; under setting [4], 0 of 3; under setting [1], 0 of 6.
Take `O=C1C=C(Nc2cccc(C(=O)O)c2)c2ccccc2C1=O`: the survivor count (T/C endpoint: mean survival time, dose: 150.0 mg/kg/injection, schedule: Q01DX001 (ip), vehicle: saline) is 3 of 6.
Regarding `O=c1ccn(C2OC(CO)C3[O][Sn]([c]4ccccc4)([c]4ccccc4)[O]C32)c(=O)[nH]1` (configuration not stated), the survivor count is 0 of 6 and 1 of 6 (T/C endpoint: mean survival time, dose: 25.0 mg/kg/injection, schedule: Q01DX005 (ip), vehicle: other); 0 of 6 (T/C endpoint: mean survival time, dose: 50.0 mg/kg/injection, schedule: Q01DX005 (ip), vehicle: other); 0 of 6 under setting [9]; 0 of 6 (T/C endpoint: mean survival time, dose: 200.0 mg/kg/injection, schedule: Q01DX005 (ip), vehicle: other).
Consider `O=[N+]([O-])c1ccc(C[N+]23CCN(CC2)CC3)cc1`, for which, for the setting “T/C endpoint: mean survival time, dose: 400.0 mg/kg/injection, schedule: Q01DX001 (ip), vehicle: saline with Tween-80”, the survivor count is reported as 3 of 6.
Consider `OC[CH2][Hg][Cl]`, for which the survivor count is 2 of 6 (T/C endpoint: mean survival time, dose: 6.25 mg/kg/injection, schedule: Q01DX009 (ip), vehicle: saline with Tween-80); 0 of 6 (T/C endpoint: mean survival time, dose: 12.5 mg/kg/injection, schedule: Q01DX009 (ip), vehicle: saline with Tween-80); 0 of 6 under setting [10]; 1 of 3 under setting [3]; 0 of 3 (T/C endpoint: mean survival time, dose: 50.0 mg/kg/injection, schedule: Q04DX002 (ip), vehicle: saline with Tween-80); 0 of 3 under setting [8].
Take `O=c1[nH]c(=O)c2ncnnc2[nH]1`: the survivor count (T/C endpoint: mean survival time, dose: 100.0 mg/kg/injection, schedule: Q01DX001 (ip), vehicle: other) is recorded as 2 of 6; the survivor count (T/C endpoint: mean survival time, dose: 200.0 mg/kg/injection, schedule: Q01DX001 (ip), vehicle: other) was 0 of 6; the survivor count (T/C endpoint: mean survival time, dose: 400.0 mg/kg/injection, schedule: Q01DX001 (ip), vehicle: other) is given as 0 of 6.
For `OC1C2CCC1C(N1CCOCC1)CC2` (configuration not stated), under setting [2], the survivor count was 0 of 6.
As for `BrCc1cccc2cccnc12`, the survivor count under setting [10] was 3 of 3; the survivor count (T/C endpoint: mean survival time, dose: 50.0 mg/kg/injection, schedule: Q01DX009 (ip), vehicle: saline with Tween-80) was 3 of 3; the survivor count (T/C endpoint: mean survival time, dose: 200.0 mg/kg/injection, schedule: Q01DX009 (ip), vehicle: saline with Tween-80) is 1 of 3; the survivor count (T/C endpoint: median survival time, dose: 200.0 mg/kg/injection, schedule: Q04DX003 (ip), vehicle: saline with Tween-80) was 0 of 3; the survivor count (T/C endpoint: median survival time, dose: 400.0 mg/kg/injection, schedule: Q04DX003 (ip), vehicle: saline with Tween-80) is 0 of 3.
In the case of `CCC1(O)CC2CN(CCc3c([nH]c4ccccc34)C(C(=O)OC)(c3cc4c(cc3OC)N(C)C3C(O)(C(=O)NCCO)C(O)C5(CC)C=CCN6CCC43C65)C2)C1` (configuration not stated), the T/C is, setting by setting: (T/C endpoint: mean survival time, dose: 0.13 mg/kg/injection, schedule: Q01DX009 (ip), vehicle: water) 127 % of control; (T/C endpoint: mean survival time, dose: 0.22 mg/kg/injection, schedule: Q01DX009 (ip), vehicle: water) 125 % of control. Moreover, the survivor count (T/C endpoint: mean survival time, dose: 0.6 mg/kg/injection, schedule: Q01DX009 (ip), vehicle: water) is 4 of 6; the survivor count (T/C endpoint: mean survival time, dose: 1.0 mg/kg/injection, schedule: Q01DX009 (ip), vehicle: water) is 0 of 6; the survivor count (T/C endpoint: mean survival time, dose: 4.0 mg/kg/injection, schedule: Q04DX003 (ip), vehicle: water) was 4 of 6.
For `CCCCCCCCCCCCCCCCCCn1cnc2c(Cl)ncnc21`, the survivor count under setting [9] is 6 of 6.
As for `Cc1ccc(N=NN(C)C)cc1`, the T/C under setting [5] is 143 % of control. Also, the survivor count by setting is: under setting [6], 0 of 6; under setting [7], 0 of 6.
